From patent publication US8877759B2, “Aminopyrazines as ATR kinase inhibitors” (Vertex Pharnaceuticals Incorporated, priority 2011, dated 2014)
The match of structure and compound is tentative.

The chains behind the UniProt entries cited, without tags or fusion partners.
UniProt Q13535, whole entry: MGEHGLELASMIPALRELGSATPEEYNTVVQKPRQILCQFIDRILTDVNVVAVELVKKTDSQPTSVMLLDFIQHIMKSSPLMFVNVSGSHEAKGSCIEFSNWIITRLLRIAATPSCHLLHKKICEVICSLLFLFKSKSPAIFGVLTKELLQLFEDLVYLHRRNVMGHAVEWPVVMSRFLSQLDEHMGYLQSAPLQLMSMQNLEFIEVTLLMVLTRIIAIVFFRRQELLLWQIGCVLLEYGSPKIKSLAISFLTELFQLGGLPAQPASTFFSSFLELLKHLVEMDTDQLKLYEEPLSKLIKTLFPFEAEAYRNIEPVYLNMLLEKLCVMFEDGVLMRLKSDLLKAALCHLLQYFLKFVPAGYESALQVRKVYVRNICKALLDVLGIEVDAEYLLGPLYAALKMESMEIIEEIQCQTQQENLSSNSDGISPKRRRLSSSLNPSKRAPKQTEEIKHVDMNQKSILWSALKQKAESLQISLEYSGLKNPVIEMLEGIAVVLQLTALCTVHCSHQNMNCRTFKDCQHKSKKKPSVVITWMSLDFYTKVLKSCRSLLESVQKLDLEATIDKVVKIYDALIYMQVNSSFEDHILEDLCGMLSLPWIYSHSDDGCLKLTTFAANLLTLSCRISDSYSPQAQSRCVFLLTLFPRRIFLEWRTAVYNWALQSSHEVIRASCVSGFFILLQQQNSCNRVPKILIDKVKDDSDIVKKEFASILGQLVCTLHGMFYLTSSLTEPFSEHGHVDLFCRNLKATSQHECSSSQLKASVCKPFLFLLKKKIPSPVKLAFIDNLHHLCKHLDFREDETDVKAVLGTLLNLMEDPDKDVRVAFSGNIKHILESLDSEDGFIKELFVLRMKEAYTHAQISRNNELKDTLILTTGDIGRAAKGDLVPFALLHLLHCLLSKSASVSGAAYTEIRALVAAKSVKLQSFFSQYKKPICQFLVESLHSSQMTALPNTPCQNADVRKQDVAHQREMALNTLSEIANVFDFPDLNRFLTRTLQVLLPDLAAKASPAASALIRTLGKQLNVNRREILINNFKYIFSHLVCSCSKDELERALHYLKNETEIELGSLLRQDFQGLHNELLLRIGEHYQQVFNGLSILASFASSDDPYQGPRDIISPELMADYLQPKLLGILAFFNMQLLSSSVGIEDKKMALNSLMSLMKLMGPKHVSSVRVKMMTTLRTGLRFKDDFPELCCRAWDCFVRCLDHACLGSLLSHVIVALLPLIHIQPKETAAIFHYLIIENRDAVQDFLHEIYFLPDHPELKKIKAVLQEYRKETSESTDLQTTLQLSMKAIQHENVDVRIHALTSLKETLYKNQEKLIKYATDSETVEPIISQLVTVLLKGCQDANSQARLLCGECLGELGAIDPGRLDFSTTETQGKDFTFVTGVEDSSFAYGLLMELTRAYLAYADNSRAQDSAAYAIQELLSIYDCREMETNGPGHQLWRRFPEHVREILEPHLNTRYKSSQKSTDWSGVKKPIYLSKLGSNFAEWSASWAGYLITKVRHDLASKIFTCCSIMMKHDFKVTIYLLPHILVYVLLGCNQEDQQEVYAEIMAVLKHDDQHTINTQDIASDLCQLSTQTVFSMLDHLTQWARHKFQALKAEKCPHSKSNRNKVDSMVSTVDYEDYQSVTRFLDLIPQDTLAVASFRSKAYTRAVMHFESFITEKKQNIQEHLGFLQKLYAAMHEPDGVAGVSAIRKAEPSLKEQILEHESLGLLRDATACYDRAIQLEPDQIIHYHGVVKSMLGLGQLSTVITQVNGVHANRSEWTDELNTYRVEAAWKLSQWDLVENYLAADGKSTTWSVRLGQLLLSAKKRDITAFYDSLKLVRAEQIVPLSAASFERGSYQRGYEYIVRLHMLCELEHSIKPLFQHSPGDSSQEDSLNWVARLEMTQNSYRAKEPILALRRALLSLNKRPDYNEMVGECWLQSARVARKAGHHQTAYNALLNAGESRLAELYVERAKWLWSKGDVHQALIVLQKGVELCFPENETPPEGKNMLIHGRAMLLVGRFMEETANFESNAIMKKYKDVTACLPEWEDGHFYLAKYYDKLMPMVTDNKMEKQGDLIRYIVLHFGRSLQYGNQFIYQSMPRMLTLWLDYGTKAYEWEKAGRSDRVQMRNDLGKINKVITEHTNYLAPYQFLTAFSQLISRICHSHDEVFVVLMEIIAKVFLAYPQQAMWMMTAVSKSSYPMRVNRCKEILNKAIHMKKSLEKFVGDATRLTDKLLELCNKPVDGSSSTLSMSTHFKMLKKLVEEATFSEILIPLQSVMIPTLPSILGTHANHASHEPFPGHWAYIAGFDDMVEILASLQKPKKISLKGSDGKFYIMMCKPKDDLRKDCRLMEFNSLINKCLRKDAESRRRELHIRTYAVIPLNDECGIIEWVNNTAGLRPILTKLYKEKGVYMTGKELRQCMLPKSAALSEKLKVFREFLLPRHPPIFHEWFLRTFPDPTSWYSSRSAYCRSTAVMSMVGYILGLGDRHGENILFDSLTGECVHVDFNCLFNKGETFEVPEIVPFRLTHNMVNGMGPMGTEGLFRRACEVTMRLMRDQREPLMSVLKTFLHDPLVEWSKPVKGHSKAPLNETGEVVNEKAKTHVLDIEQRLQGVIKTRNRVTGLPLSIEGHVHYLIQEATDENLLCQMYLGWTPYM

Molecular target: full-length ATR (Homo sapiens, UniProt Q13535)
Test: ATR Inhibition Assay (radioactive-phosphate incorporation)
Details: Ki(app), 5 nM full-length ATR, 10 μM [γ-33P]ATP, 800 μM target peptide, 25° C.; for Ki: read-out: ATR Ki

| Ki | SMILES | ATR Ki |
| --- | --- | --- |
| < 1 nM | CC(C)(C#N)c1cc(-c2cnc(N)c(-c3nnc(-c4ccc(NCC5CCCN5)cc4)o3)n2)ccn1 (stereo not shown) | – |
| < 1 nM | CC(C)(C#N)c1cc(-c2cnc(N)c(-c3nnc(-c4ccc(NCCN)cc4)o3)n2)ccn1 | – |
| 5 to 20 nM | CC(C)(C#N)c1cc(-c2cnc(N)c(-c3cc(-c4ccc(CNCC(=O)O)cc4)no3)n2)ccn1 | – |
| < 1 nM | CC(C)(C#N)c1cc(-c2cnc(N)c(-c3nnc(-c4ccc(NCCO)cc4)o3)n2)ccn1 | – |

The next lines start with the molecule.

| SMILES | Ki | ATR Ki |
| --- | --- | --- |
| CC(C)(C#N)c1cc(-c2cnc(N)c(-c3nnc(-c4ccc(O[C@@H]5CCNC5)cc4)o3)n2)ccn1 | – | +++ (Compounds with a Ki value >5 nM but ≦1 nM are marked with “+++.”) |
| CN(C)CCN(C)c1ccc(-c2nnc(-c3nc(-c4ccnc(C(C)(C)C#N)c4)cnc3N)o2)cc1 | – | +++ (Compounds with a Ki value >5 nM but ≦1 nM are marked with “+++.”) |
| Cc1ccsc1-c1nnc(-c2nc(-c3ccnc(C4(C#N)CCNCC4)c3)cnc2N)o1 | 5 to 20 nM | – |
